Reference: paper PMC7819943, “Rice protein-binding microarrays: a tool to detect cis-acting elements near promoter regions in rice”
The list shows a part of the results.

By UniProt entry, the sequences of proteins in these tests, tags left out.
UniProt Q0JBA9, entry or part of it: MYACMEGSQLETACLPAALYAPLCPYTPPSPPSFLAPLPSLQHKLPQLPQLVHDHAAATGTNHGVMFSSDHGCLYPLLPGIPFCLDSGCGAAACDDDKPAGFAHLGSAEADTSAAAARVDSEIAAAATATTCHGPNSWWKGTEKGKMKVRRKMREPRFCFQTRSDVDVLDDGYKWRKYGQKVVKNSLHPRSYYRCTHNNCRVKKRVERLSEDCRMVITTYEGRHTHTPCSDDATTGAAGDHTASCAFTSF

target: OsWRKY34 (Oryza sativa, UniProt Q0JBA9 1-250); test: protein-binding microarray (RPBM); PBS, 2% BSA, 51.3 ng/ul salmon testes DNA, 50 uM zinc acetate, 200 nM TF, 25 C, 1 h; high values mean tight binding; settings: protein: recombinant; tags: N-terminal polyhistidine and DsRed monomer fusion (pET32a); label: CyDye5-dUTP incorporated in the synthesized complementary strand; 3' TTTTT single-stranded linker to array surface; dsDNA, one strand shown
How it was run: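 Per-feature fluorescence intensity (arbitrary units), read on an Axon 4000B scanner, is the binding signal. Transcription factors carrying an N-terminal polyhistidine tag and DsRed fusion were expressed in E. coli BL21-CodonPlus and purified on Ni–NTA. A custom Agilent array, made double-stranded by primer extension with Cy5-dUTP and blocked with 2% BSA, was incubated with 200 nM protein in PBS, 2% BSA, salmon testes DNA and 50 µM zinc acetate at 25 °C for 1 h and then washed.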

Sequence | binding signal
CCATTTTTGTTAGACGCGCTAGTGGAACATCCATCTTTCTCGGAGTCACCTAGTGCAG | 8210 fluorescence intensity (a.u.)
GCCGCGCGCTCGTCCACCGCTGCTGCCACCCCGCTCCACTCGGAGTCACCTAGTGCAG | 10700 fluorescence intensity (a.u.)
CTCGCTTCCGCCACCAACCCCTTCGCGAACCTTCTAGAACCGGAGTCACCTAGTGCAG | 10200 fluorescence intensity (a.u.)
TTAATTACTTCCTTTTCTTTTCTTTTCTTTTCCTTTTTTTCGGAGTCACCTAGTGCAG | 8110 fluorescence intensity (a.u.)
GTTCTGATGTCCACCGTGCAGGTTCATATGCTTCTGCCAACGGAGTCACCTAGTGCAG | 8410 fluorescence intensity (a.u.)
TTAATATTTTATGTGTGACTTGTCTTTTTAATTTTTTTATCGGAGTCACCTAGTGCAG | 8700 fluorescence intensity (a.u.)
GTGTTCTTGTGTGTGTGTGTGTGTGTGTGTGTGTGTGTGTCGGAGTCACCTAGTGCAG | 9670 fluorescence intensity (a.u.)
CCCAACTGTTCCACTTGACGCATCGATCGATATCTGAATTCGGAGTCACCTAGTGCAG | 9740 fluorescence intensity (a.u.)
CACTTTGTATATTCTCGAGTGGATTTGCAATATATTGGTGCGGAGTCACCTAGTGCAG | 8740 fluorescence intensity (a.u.)
CTTTGTGCTCTCTTGGTCTCTCTCTTCTACTTGCTCTCCACGGAGTCACCTAGTGCAG | 12200 fluorescence intensity (a.u.)
AAATGACCGAGCTACACTCTCTTCTTGCCAAGGCTATCATCGGAGTCACCTAGTGCAG | 8770 fluorescence intensity (a.u.)
GCAACACGGTAATTAAATTTACTCTCGATGGGCGCACGTTCGGAGTCACCTAGTGCAG | 8110 fluorescence intensity (a.u.)
TCGTCTACATCTTCATTCTGTTTAGATTCTTCTTGAACTGCGGAGTCACCTAGTGCAG | 8410 fluorescence intensity (a.u.)
AAGCAACCCCACTTACACCGTGTTAAGATCCTAAATTTTTCGGAGTCACCTAGTGCAG | 10100 fluorescence intensity (a.u.)
ATTTTTCCATCACATGAAAATTTTCCTACACATAAACTTTCGGAGTCACCTAGTGCAG | 9380 fluorescence intensity (a.u.)
AACATCTAAGCACTCATATGATAACCCATTTACTGACTTACGGAGTCACCTAGTGCAG | 8930 fluorescence intensity (a.u.)
ATCCTCTCTCATCATTTTTTCCCTTTTTCTCCTTCAACCACGGAGTCACCTAGTGCAG | 10500 fluorescence intensity (a.u.)
CTTCACGCGACGTGCTGCTCCGCTCCGCTCCGTCGTCAAGCGGAGTCACCTAGTGCAG | 8230 fluorescence intensity (a.u.)
CTTGCCCGCCGCCATCGCCATGCCACTGGGCGTACCTGCCCGGAGTCACCTAGTGCAG | 10400 fluorescence intensity (a.u.)
TTGTCGCTCCTCATCCCCGTCACCGAACTGTTGCCGCAACCGGAGTCACCTAGTGCAG | 9150 fluorescence intensity (a.u.)
GCAGTTGTGCCCTTAAATACCCACACGCCTCTCTTTCTTCCGGAGTCACCTAGTGCAG | 10400 fluorescence intensity (a.u.)

Sequence | binding signal
CTCCTCGTCTTCTTCTTCCACCTCGCAAATCCGATCAACACGGAGTCACCTAGTGCAG | 9850 fluorescence intensity (a.u.)
TGCCAGTTAACCTTATACTATATGCAATCGGGGAATGATGCGGAGTCACCTAGTGCAG | 8500 fluorescence intensity (a.u.)
TTAGGTGTTTTGTAGTAGTGTAATGGGGCATATTCGTGGGCGGAGTCACCTAGTGCAG | 8270 fluorescence intensity (a.u.)
TTCTTTTTTTCTTTTTGTGTGTGTCTATTGCCGTCCTTGACGGAGTCACCTAGTGCAG | 10700 fluorescence intensity (a.u.)
GAGTTTATTGGGATAGGATACGTCTATGTGCATTTGCATACGGAGTCACCTAGTGCAG | 8060 fluorescence intensity (a.u.)
ACCACTCATCAGCTCGCTCTCGCCTATCTTCTCCTATAATCGGAGTCACCTAGTGCAG | 8250 fluorescence intensity (a.u.)
CACTCCTGCTCGACTCCTTGGTGACGTTTCTGTTTCTGTTCGGAGTCACCTAGTGCAG | 12200 fluorescence intensity (a.u.)
GGGGCCCACCCAGCAGCCACTCATTTATTTTCCAGTTCCGCGGAGTCACCTAGTGCAG | 8090 fluorescence intensity (a.u.)
TTCCTGCAGCCGGACACTCGTTGCGCGAATCTTGACTGCTCGGAGTCACCTAGTGCAG | 8120 fluorescence intensity (a.u.)
CCCCGATCCCCACCTCGTCTCCACCGCACGAGCAGCAGCACGGAGTCACCTAGTGCAG | 9270 fluorescence intensity (a.u.)
GCTTATACCTATATACACATTACATTTTGATGGCTTATCTCGGAGTCACCTAGTGCAG | 10700 fluorescence intensity (a.u.)
CGCCGCCGCCTCGGTCCTCCCAATGCCGCCCACCGAGTCGCGGAGTCACCTAGTGCAG | 8360 fluorescence intensity (a.u.)
TCATGTAACTTTTCACCTTTTCAGGACCTTTTTTTTTCCACGGAGTCACCTAGTGCAG | 8120 fluorescence intensity (a.u.)
AATCGACCAGACCAAACCAAACCCAAACCAAACCCAACCCCGGAGTCACCTAGTGCAG | 8900 fluorescence intensity (a.u.)
CCTATCTCTCTCTTTCTCACTTTTCTCCTTGTTTTCAAAACGGAGTCACCTAGTGCAG | 8980 fluorescence intensity (a.u.)
CGAACGAACGACGCCACCGCCCACCACCTCCACCACCAACCGGAGTCACCTAGTGCAG | 8500 fluorescence intensity (a.u.)
GAGTCACTGTCTCCTCCTCGCCGTCCCTAGTCAACGTCTTCGGAGTCACCTAGTGCAG | 9770 fluorescence intensity (a.u.)
CAGACCAGCCCACAACTCGCAATCCATCTTGGGCCTATTTCGGAGTCACCTAGTGCAG | 8590 fluorescence intensity (a.u.)
CCCTCTCTGTTGTTTGCTCATCGATCATTGAGGGCGAGGTCGGAGTCACCTAGTGCAG | 8140 fluorescence intensity (a.u.)
ATTTTCAGTCTTTCATTTTTACAGATACTCATTGCATTAACGGAGTCACCTAGTGCAG | 8230 fluorescence intensity (a.u.)
GGCGACAAGGTAGGGTTAGGGTTTCGATCTTTTGATCCGTCGGAGTCACCTAGTGCAG | 10000 fluorescence intensity (a.u.)

Sequence | binding signal
CTAATTGCAGAGGGTGTGGATGCTACTGTATTCGGGCGCCCGGAGTCACCTAGTGCAG | 9280 fluorescence intensity (a.u.)
ATTATCATCTTCTTTTTTTTTCCACCTTTTTACATACTTACGGAGTCACCTAGTGCAG | 9290 fluorescence intensity (a.u.)
ATGTTCGGGCTTGCTTTGGTTTCTATCCTGAGTTGGACGTCGGAGTCACCTAGTGCAG | 9380 fluorescence intensity (a.u.)
AGCTAGTCTTCTAGTCCTTTTTCTTTTCGGTTGATTGTTTCGGAGTCACCTAGTGCAG | 9430 fluorescence intensity (a.u.)
AGATAATATTTCATCTCTATCATTATGCATTTATTTACACCGGAGTCACCTAGTGCAG | 9200 fluorescence intensity (a.u.)
TCCGCCGTCGCCGCTCCGTCCATCGCCCGCCGTCACCGCCCGGAGTCACCTAGTGCAG | 9200 fluorescence intensity (a.u.)
CAATCCGCCTCGCTCTCGCCGCCCGCACCCACGCTCACGCCGGAGTCACCTAGTGCAG | 10300 fluorescence intensity (a.u.)
CCCAGGCAGCTCTCTATATATATATCACTATATCAGAATCCGGAGTCACCTAGTGCAG | 8780 fluorescence intensity (a.u.)
CTGTTGCGGCTTGTTTGTTAACTCGAGGGAAGGGGATTGGCGGAGTCACCTAGTGCAG | 8070 fluorescence intensity (a.u.)
CACTTTCCTACACACGTAAACTTCCAACTTTTCCATCACACGGAGTCACCTAGTGCAG | 10100 fluorescence intensity (a.u.)
ATGGTTCACCAGACTTCGGATTTAGCCTTTTATCTTTTTTCGGAGTCACCTAGTGCAG | 8690 fluorescence intensity (a.u.)
TGGGGAGGAGGAGCATAATGCAGGTGCTGGCCAGATTTTTCGGAGTCACCTAGTGCAG | 8430 fluorescence intensity (a.u.)
ACTGTCTAGCTTTACTAGTACTACTATTGATCGAGTCAATCGGAGTCACCTAGTGCAG | 9730 fluorescence intensity (a.u.)
TTTTTCTGTTTTCTGTTTGCAAGGTCCTGACCTTTTTCAACGGAGTCACCTAGTGCAG | 12500 fluorescence intensity (a.u.)
GGTTTGAATGGTTGCATGGATTTTTCACGTAAAATATTAACGGAGTCACCTAGTGCAG | 9500 fluorescence intensity (a.u.)
TGCCACCCGATCTCCTTCCAGTGTTATTCAACACCCGTCCCGGAGTCACCTAGTGCAG | 8610 fluorescence intensity (a.u.)
ATATGTCAGTTGCACATTTTCTTTCTTTTCCTTTCCTTCTCGGAGTCACCTAGTGCAG | 8340 fluorescence intensity (a.u.)
TGTCCCTGTCTATTTTACCTCTATATCGCACGTACTCCGGCGGAGTCACCTAGTGCAG | 8700 fluorescence intensity (a.u.)
GTTGTTCCGATTCTCAAGCTACACACGACACCCACGTCCGCGGAGTCACCTAGTGCAG | 9050 fluorescence intensity (a.u.)
CAATATGCCATTGTGGAGATGTTTTCTTTCTTTTTTTTTTCGGAGTCACCTAGTGCAG | 8540 fluorescence intensity (a.u.)
AACTGAATTGTTGGTTTTTTCGGTTTTCGGTTGTCAGTTCCGGAGTCACCTAGTGCAG | 11900 fluorescence intensity (a.u.)

Sequence | binding signal
TATCAGGAGATCGGTCCCTTGTGCATCTTCCCCGTCTTGACGGAGTCACCTAGTGCAG | 8840 fluorescence intensity (a.u.)
CCTGACCATCCGTTTCGTCCTCCTTTCCTGTGCTTTTTCCCGGAGTCACCTAGTGCAG | 9870 fluorescence intensity (a.u.)
CCCCGCGAAAGCCTCCGCCACCCGTTACCGGCCGCAACCCCGGAGTCACCTAGTGCAG | 9470 fluorescence intensity (a.u.)
CCTTTCAAACAACACTTTCGTTTTTCAATTATCTATTTTACGGAGTCACCTAGTGCAG | 8360 fluorescence intensity (a.u.)
TTGAATTGAATTATTATGCTCATCGCTTTCGCATAACCTCCGGAGTCACCTAGTGCAG | 8320 fluorescence intensity (a.u.)
TCTCTCTCTCTCTCTCTCTCTCTCTCTCTCTCTCTTGCAACGGAGTCACCTAGTGCAG | 9780 fluorescence intensity (a.u.)
ACTATATTCTGTTTTGTTCTGTTAATTTACTATTCTGTTTCGGAGTCACCTAGTGCAG | 10500 fluorescence intensity (a.u.)
GGTGGCATCAAGTATCCAACATTCTAACCTCGTTGCATCCCGGAGTCACCTAGTGCAG | 9660 fluorescence intensity (a.u.)
CCCCAACCGCTTCTTTCGCACTCGCCGTTTTGGTTTTCGTCGGAGTCACCTAGTGCAG | 9000 fluorescence intensity (a.u.)
TTTCATGCAGTGCGAGCAACCCACCATTTCCATCTAAATTCGGAGTCACCTAGTGCAG | 8140 fluorescence intensity (a.u.)
TTTGACGCTGTTGACTTTTTTTAACATGTTTGACTGTTCGCGGAGTCACCTAGTGCAG | 32700 fluorescence intensity (a.u.)
TCATCACTCATCACTCGTTCTTTCGTTACTCATGGAACGGCGGAGTCACCTAGTGCAG | 8380 fluorescence intensity (a.u.)
GAACCCATGACCTGACTGACCTTCACACGCACGTGCCACACGGAGTCACCTAGTGCAG | 8600 fluorescence intensity (a.u.)
CAGGAACTCATTTGGCCTCTCATTCTTCTCCAACCTTTCTCGGAGTCACCTAGTGCAG | 8450 fluorescence intensity (a.u.)
TCTGCTGCCGAAATTCGGCGCGGCCGCCGCAGCATACACACGGAGTCACCTAGTGCAG | 9420 fluorescence intensity (a.u.)
GAGGTAGCGGTGGCGGTGAGGGCGGGGAGAGGAAGGCAGCCGGAGTCACCTAGTGCAG | 8040 fluorescence intensity (a.u.)
TTTTGCAGAACACATCGCCCTTCTCTTTTTCCTTTTCTCCCGGAGTCACCTAGTGCAG | 8290 fluorescence intensity (a.u.)
TAAACTTAGTCAAACTTGAAATAATTTAATTTTGACCAAACGGAGTCACCTAGTGCAG | 9280 fluorescence intensity (a.u.)
ATCTTACAAAAACTTCCATGACTTTTTTTGCTGTGTGTGTCGGAGTCACCTAGTGCAG | 9440 fluorescence intensity (a.u.)
CAGATGGTCTGGTGGTCGGCGGAGGTCCCGGCGCGCGCGTCGGAGTCACCTAGTGCAG | 8360 fluorescence intensity (a.u.)
CCCAATCAACTTCTTTTCCTTCGCCCAAGCAAGTACCTCTCGGAGTCACCTAGTGCAG | 8830 fluorescence intensity (a.u.)

No new results follow: entries from further up.
Sequence | binding signal
ACTATATTCTGTTTTGTTCTGTTAATTTACTATTCTGTTTCGGAGTCACCTAGTGCAG | 10500 fluorescence intensity (a.u.)
GGTGGCATCAAGTATCCAACATTCTAACCTCGTTGCATCCCGGAGTCACCTAGTGCAG | 9660 fluorescence intensity (a.u.)
CCCCAACCGCTTCTTTCGCACTCGCCGTTTTGGTTTTCGTCGGAGTCACCTAGTGCAG | 9000 fluorescence intensity (a.u.)
TTTCATGCAGTGCGAGCAACCCACCATTTCCATCTAAATTCGGAGTCACCTAGTGCAG | 8140 fluorescence intensity (a.u.)
